No constants are given. Whether binding was seen depends on the method and setting. Binding seen in cells or lysates may run through a third protein. Some binding calls cover weakened binding; strength is not graded here.
Experiments:
[1] = target: NDRG1 (endogenous, HUVEC) (human (endogenous in HUVEC)) (UniProt Q92597); assay: co-IP; HUVEC lysate, endogenous proteins; precipitation with anti-PIM1 or anti-NDRG1, IgG as control; Protein A/G magnetic beads; western blot
[2] = target: NDRG1 (326-394aa)-His-Tag (UniProt Q92597); assay: co-IP; HEK 293T transfected with His-tagged NDRG1, its truncated mutants or vector; whole cell lysates precipitated with anti-His-Tag; blotted with anti-His-Tag and anti-PIM1 or anti-PTBP1
[3] = target: NDRG1 (180-294aa)-His-Tag (UniProt Q92597); assay: as above
[4] = target: NDRG1 (endogenous, HUVEC) (human (endogenous in HUVEC)) (UniProt Q92597); assay: co-IP; nuclear extract of HUVEC treated with H2O2 (200 uM) and TGF-beta (50 ng/mL, 48 h); endogenous proteins; precipitation with anti-NDRG1 or anti-PTBP1, IgG as control

Chains of the proteins cited; added tags and fusions are not shown. Lines headed by an entry give the natural chain unless they say otherwise; changes in a name come on top. Residues count along the entry.
UniProt Q92597: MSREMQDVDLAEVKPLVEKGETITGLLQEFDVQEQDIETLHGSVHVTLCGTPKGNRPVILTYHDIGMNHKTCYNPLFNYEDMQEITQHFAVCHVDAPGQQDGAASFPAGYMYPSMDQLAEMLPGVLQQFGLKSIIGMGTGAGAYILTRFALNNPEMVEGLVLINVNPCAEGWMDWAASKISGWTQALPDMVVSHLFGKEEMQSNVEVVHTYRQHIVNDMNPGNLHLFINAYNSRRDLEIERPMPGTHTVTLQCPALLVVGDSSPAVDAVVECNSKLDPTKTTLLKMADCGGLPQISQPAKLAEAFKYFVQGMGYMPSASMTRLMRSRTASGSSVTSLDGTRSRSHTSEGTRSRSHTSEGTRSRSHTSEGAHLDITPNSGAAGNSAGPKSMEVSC
NDRG1 (180-294aa)-His-Tag: residues 180-294 of Q92597
NDRG1 (326-394aa)-His-Tag: residues 326-394 of Q92597
UniProt P11309: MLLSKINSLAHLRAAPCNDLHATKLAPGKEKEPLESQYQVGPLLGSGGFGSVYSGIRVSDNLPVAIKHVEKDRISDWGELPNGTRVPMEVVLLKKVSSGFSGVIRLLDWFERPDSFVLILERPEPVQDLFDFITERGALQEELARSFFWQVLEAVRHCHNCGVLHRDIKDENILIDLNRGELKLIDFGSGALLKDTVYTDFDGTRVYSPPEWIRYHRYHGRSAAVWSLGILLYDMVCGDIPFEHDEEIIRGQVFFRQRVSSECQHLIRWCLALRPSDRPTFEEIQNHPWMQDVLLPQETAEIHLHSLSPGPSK
UniProt P26599: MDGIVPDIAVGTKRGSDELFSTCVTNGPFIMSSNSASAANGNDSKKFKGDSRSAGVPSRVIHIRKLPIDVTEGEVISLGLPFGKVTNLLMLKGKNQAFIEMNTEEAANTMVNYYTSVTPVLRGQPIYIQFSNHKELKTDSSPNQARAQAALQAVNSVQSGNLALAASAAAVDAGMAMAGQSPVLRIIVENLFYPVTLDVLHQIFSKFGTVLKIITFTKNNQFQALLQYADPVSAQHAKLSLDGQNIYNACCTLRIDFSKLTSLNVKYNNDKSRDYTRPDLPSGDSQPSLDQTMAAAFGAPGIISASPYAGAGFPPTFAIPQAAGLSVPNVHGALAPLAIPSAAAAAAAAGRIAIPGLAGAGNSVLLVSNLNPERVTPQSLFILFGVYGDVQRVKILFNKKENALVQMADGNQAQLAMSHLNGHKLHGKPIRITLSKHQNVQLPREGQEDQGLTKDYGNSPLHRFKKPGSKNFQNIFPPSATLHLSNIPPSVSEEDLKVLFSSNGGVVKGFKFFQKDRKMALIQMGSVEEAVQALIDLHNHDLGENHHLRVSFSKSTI

Row | binding [1] | binding [2] | binding [3] | binding [4] | Substance
1 | binds |  |  |  | PIM1 (endogenous, HUVEC) (from UniProt P11309 1-313) (enzyme)
2 |  | binds | binds |  | PIM1 (in HEK 293T whole cell lysate, detected with anti-PIM1) (from UniProt P11309 1-313) (enzyme)
3 |  |  |  | binds | PTBP1 (endogenous, HUVEC) (from UniProt P26599 1-557)
4 |  | binds | binds |  | PTBP1 (in HEK 293T whole cell lysate, detected with anti-PTBP1) (from UniProt P26599 1-557)

From publication PMC11671384
